# This is a selection; strong and weak results do not stand in their true shares. At the low end of the ranking the order means little.
# Protein sequences, listed by entry. Tags and fused reporters are not part of them. Lines headed by an entry give the natural chain unless they say otherwise; changes in a name come on top.
# UniProt O43186: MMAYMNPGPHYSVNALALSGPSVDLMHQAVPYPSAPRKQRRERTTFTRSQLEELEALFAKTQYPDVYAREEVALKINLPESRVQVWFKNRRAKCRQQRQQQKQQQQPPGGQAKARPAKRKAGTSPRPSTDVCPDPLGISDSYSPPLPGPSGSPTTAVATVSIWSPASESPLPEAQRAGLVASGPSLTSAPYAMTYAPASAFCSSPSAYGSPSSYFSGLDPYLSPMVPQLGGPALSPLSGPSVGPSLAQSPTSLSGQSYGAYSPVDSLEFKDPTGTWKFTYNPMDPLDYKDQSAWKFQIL
# Biological target: CRX (UniProt O43186)
# Assay: DAPPL (digital affinity profiling via proximity ligation, sequencing)
# Conditions: 10 mM Tris-HCl pH 7.5, 50 mM NaCl, 1 mM DTT, 4% glycerol, room temperature, 30 min; GST-TFs on glutathione beads, 16-mer random dsDNA library, 0.1% …; high values mean tight binding; double strand, one strand shown; scale: fold enrichment (6-mer frequency, TF over GST control)
row,Sequence,binding signal
1,TCTGAT,1.55
2,CTGCCA,0.9
3,AACCAA,1.09
4,TACCCA,1.08
5,CTCATG,1.05
6,CGACCG,0.823
7,GTACAT,0.902
8,CCGGTA,0.834
9,TTTACT,1.95
10,ACTGGC,0.966
11,GTTAAC,1.15
12,GTGGCT,1.18
13,CTCGCC,0.986
14,AATACA,1.33
15,TGCGTA,0.998
16,CCCGGA,1.03
17,GTTTTC,0.942
18,TCGATC,1.23
19,ATGCAC,0.978
20,ATCATG,1.21

row,Sequence,binding signal
1,GCTTCA,1.1
2,TATAAG,2.08
3,CTTTCC,1.54
4,GTCTCA,1.12
5,TATGGT,1.29
6,GTCACA,0.722
7,CCATTG,1.02
8,GCCCTT,1.06
9,TGTAAT,1.79
10,CTCAGG,0.984
11,TTGGGT,1.07
12,TACGTA,1.49
13,CGCGTC,0.858
14,GATTCT,1.58
15,TCTAAA,1.6
16,CTTTTA,1.61
17,TTAAAG,2.66
18,CGTTCA,0.968
19,TCCGGC,1.1

# Rewritten with tabs: part of the list above
row	Sequence	binding signal
12	TACGTA	1.49
13	CGCGTC	0.858
